Measurements as given in patent US20250388541A1, “HETEROARYL COMPOUNDS FOR THE TREATMENT OF PAIN” (VERTEX PHARMACEUTICALS INCORPORATED, priority 2022, published 2025).
Some entries share one result that the patent states for a list of compounds.

Sequences of proteins named here, by UniProt entry; tags and fusion partners are left off. Residues count along the entry.
UniProt Q9Y5Y9, 660-890 limits assumed: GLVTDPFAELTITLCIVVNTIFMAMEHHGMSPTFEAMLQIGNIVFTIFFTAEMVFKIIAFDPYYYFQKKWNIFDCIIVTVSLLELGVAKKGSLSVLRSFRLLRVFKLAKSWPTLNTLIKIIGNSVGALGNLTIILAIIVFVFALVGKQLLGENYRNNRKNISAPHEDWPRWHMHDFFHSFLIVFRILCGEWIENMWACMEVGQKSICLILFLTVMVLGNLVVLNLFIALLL
UniProt Q9Y5Y9, 1148-1722 limits assumed: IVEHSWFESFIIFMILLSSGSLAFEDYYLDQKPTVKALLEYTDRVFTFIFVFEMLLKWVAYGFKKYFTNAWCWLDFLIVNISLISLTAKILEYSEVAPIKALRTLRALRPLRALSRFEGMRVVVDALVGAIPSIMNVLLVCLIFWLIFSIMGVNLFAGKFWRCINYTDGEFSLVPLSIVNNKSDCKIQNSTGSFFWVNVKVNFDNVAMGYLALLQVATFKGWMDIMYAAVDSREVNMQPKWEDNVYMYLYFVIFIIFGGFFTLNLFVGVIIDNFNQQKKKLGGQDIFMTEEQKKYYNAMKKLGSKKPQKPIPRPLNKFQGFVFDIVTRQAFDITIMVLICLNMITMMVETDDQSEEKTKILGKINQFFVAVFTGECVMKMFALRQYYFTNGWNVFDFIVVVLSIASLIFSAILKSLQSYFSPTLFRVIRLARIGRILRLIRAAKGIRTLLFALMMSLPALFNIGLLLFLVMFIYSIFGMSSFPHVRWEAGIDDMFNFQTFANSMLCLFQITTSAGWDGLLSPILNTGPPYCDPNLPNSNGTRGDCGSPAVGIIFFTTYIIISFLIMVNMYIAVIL
UniProt Q9Y5Y9, 126-399 limits assumed: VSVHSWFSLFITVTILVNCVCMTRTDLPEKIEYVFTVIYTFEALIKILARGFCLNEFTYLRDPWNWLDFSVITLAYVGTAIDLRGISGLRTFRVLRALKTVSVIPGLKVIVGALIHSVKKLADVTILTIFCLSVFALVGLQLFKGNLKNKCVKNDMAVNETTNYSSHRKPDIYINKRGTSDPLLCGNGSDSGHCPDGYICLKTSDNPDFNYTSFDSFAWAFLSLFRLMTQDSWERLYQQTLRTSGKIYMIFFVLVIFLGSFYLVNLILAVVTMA

Biological target: human NaV 1.8 (Homo sapiens, UniProt Q9Y5Y9)
Assay: E-VIPR assay detecting and measuring NaV inhibition properties
Type: cell-based
Settings: HEK cells expressing a truncated form of human NaV 1.8; electrical stimulation, membrane potential FRET dyes; read-out: measured IC50 value in the E-VIPR Assay
Text: E-VIPR Assay Detecting and Measuring NaV Inhibition Properties
Sodium ion channels are voltage-dependent proteins that can be activated by inducing membrane voltage changes by applying electric fields. […] The instrument comprises a microtiter plate handler, an optical system for exciting the coumarin dye while simultaneously recording the coumarin and oxonol emissions, a waveform generator, a current- or voltage-controlled amplifier, and parallel electrode pairs that are inserted into assay plate wells. Under integrated computer control, this instrument passes user-programmed electrical stimulus protocols to cells within the wells of the microtiter plate.
16-20 hours prior to running the assay on E-VIPR, HEK cells expressing a truncated form of human NaV 1.8 with full channel activity were seeded into microtiter 384-well plates, pre-coated with matrigel, at a density of 25,000 cells per well. 2.5-5% KIR2.1 BacMam virus was added to the final cell suspension before seeding into cell plates. […] Cells were expanded in 5-layer CellSTACK culture chambers or cell culture flasks with vented caps, with 90-95% humidity and 5% CO2.
• Bath 1 Buffer containing 0.5% 3-cyclodextrin (made fresh prior to each use, Sigma #C4767), […] CC2-DMPE and 2 μM DiSBAC6(3). The solution was made by adding 10% Pluronic F127 stock equal to combined volumes of CC2-DMPE and DiSBAC6(3).
The compound plate was backfilled with 45 μL per well of Compound Loading Buffer resulting in a 240-fold dilution of compound following a 1:1 transfer of compound into the cell plate (see Step 6). […] This assay dilution protocol was adjusted to enable a higher dose range to be tested in the presence of HS or if the final assay volume was altered. • 2) Hexyl Dye Solution was prepared. • 3) Cell plates were prepared. On the day of the assay, the media was aspirated, and the cells were washed three times with 80 μL of Bath-1 buffer, maintaining 25 μL residual volume in each well. • 4) 25 μL per well of Hexyl Dye Solution was dispensed into the cell plates. The cells were incubated for 20 minutes at room temperature or ambient conditions in darkness. • 5) 45 μL per well of Compound Loading Buffer was dispensed into compound plates. • 6) The cell plates were washed three times with 80 μL per well of Bath-1 Buffer, leaving 25 μL of residual volume. Then 25 µL per well from compound plate was transferred to each cell plate. The mixture was incubated for 30 minutes at room temperature/ambient conditions. • 7) The cell plate containing compound was read on E-VIPR using the current-controlled amplifier to deliver stimulation wave pulses using a symmetrical biphasic waveform. […] A pre-stimulus recording was performed for each well for 0.5 seconds to obtain the un-stimulated intensities baseline. The stimulatory waveform was followed by 0.5 seconds of post-stimulation recording to examine the relaxation to the resting state. All E-VIPR responses were measured at 200 Hz acquisition rate.
The response as a function of time was reported as the ratios obtained using the following formula: […]
The data were normalized by calculating the initial (Ri) and final (Rf) ratios. These were the average ratio values during part or all of the pre-stimulation period and during sample points during the stimulation period. The fluorescence ratio (Rf/Ri) was then calculated and reported as a function of time.
Control responses were obtained by performing assays in the presence of the positive control, and in the absence of pharmacological agents (DMSO vehicle negative control). Responses to the negative (N) and positive (P) controls were calculated as above. The compound antagonist % activity A was then defined as:
[formula] • where X is the maximum amplitude of the ratio response or number of action potential peaks, at the beginning of the pulse train in the presence of test compound.

Row | Structure (SMILES) | IC50
1 | Cc1cc(=O)cc(-c2cccc(F)c2F)[nH]1 [Compound 26, 2-(2,3-difluorophenyl)-6-methyl-1H-pyridin-4-one] | ≥ 5 µM
2 | Cc1cc(=O)cc(-c2ccc(C(C)(C)C)cc2OCCO)[nH]1 [Compound 164, 2-[4-tert-butyl-2-(2-hydroxyethoxy)phenyl]-6-methyl-1H-pyridin-4-one] | ≥ 5 µM
3 | Cc1cc(=O)cc(-c2ccc(Cl)cc2C)[nH]1 [Compound 74, 2-(4-chloro-2-methyl-phenyl)-6-methyl-1H-pyridin-4-one] | ≥ 5 µM
4 | Cc1[nH]c(-c2ccc(C(C)(C)C)cc2OCCO)cc(=O)c1C [Compound 162, 6-[4-tert-butyl-2-(2-hydroxyethoxy)phenyl]-2,3-dimethyl-1H-pyridin-4-one] | ≥ 5 µM
5 | Cc1cc(=O)cc(-c2ccccc2C(C)(C)C)[nH]1 [Compound 9, 2-(2-tert-butylphenyl)-6-methyl-1H-pyridin-4-one] | ≥ 5 µM
6 | Cc1cc(=O)cc(-c2ccc(C)c(Cl)c2C)[nH]1 [Compound 73, 2-(3-chloro-2,4-dimethyl-phenyl)-6-methyl-1H-pyridin-4-one] | ≥ 5 µM
7 | COc1ccccc1-c1cc(=O)c(C)c(C)[nH]1 [Compound 84, 6-(2-methoxyphenyl)-2,3-dimethyl-1H-pyridin-4-one] | ≥ 5 µM
8 | Cc1cc(=O)cc(-c2ccccc2O)[nH]1 [Compound 66, 2-(2-hydroxyphenyl)-6-methyl-1H-pyridin-4-one] | ≥ 5 µM
9 | Cc1cc(=O)cc(-c2cc(C(F)(F)F)ccc2C)[nH]1 [Compound 46, 2-methyl-6-[2-methyl-5-(trifluoromethyl)phenyl]-1H-pyridin-4-one] | ≥ 5 µM
10 | Cc1cc(=O)cc(-c2cccc3c2CCC3)[nH]1 [Compound 42, 2-indan-4-yl-6-methyl-1H-pyridin-4-one] | ≥ 5 µM
11 | CCOc1cc(C(F)(F)F)ccc1-c1cc(=O)cc(C)[nH]1 [Compound 19, 2-[2-ethoxy-4-(trifluoromethyl)phenyl]-6-methyl-1H-pyridin-4-one] | ≥ 5 µM
12 | Cc1cc(=O)cc(-c2cccc(C)c2C)[nH]1 [Compound 37, 2-(2,3-dimethylphenyl)-6-methyl-1H-pyridin-4-one] | ≥ 5 µM
13 | Cc1cc(=O)cc(-c2ccc3c(c2)CCCC3)[nH]1 [Compound 41, 2-methyl-6-tetralin-6-yl-1H-pyridin-4-one] | ≥ 5 µM
14 | COc1c(-c2cc(=O)cc(C)[nH]2)cccc1C(F)(F)F [Compound 62, 2-[2-methoxy-3-(trifluoromethyl)phenyl]-6-methyl-1H-pyridin-4-one] | ≥ 5 µM
15 | Cc1cc(=O)cc(-c2cccc3c2OC(F)(F)O3)[nH]1 [Compound 17, 2-(2,2-difluoro-1,3-benzodioxol-4-yl)-6-methyl-1H-pyridin-4-one] | ≥ 5 µM
16 | COc1cc(C)cc(-c2cc(=O)cc(C)[nH]2)c1 [Compound 12, 2-(3-methoxy-5-methyl-phenyl)-6-methyl-1H-pyridin-4-one] | ≥ 5 µM
17 | COc1c(C)cc(-c2cc(=O)cc(C)[nH]2)cc1C [Compound 29, 2-(4-methoxy-3,5-dimethyl-phenyl)-6-methyl-1H-pyridin-4-one] | ≥ 5 µM
18 | Cc1cc(C(C)(C)C)ccc1-c1cc(=O)cc(C(F)(F)F)[nH]1 [Compound 105, 2-(4-tert-butyl-2-methyl-phenyl)-6-(trifluoromethyl)-1H-pyridin-4-one] | ≥ 5 µM
19 | Cc1cc(=O)cc(-c2ccc(F)c(C(F)(F)F)c2)[nH]1 [Compound 36, 2-[4-fluoro-3-(trifluoromethyl)phenyl]-6-methyl-1H-pyridin-4-one] | ≥ 5 µM
20 | COc1cc(C)ccc1-c1cc(=O)cc(C)[nH]1 [Compound 70, 2-(2-methoxy-4-methyl-phenyl)-6-methyl-1H-pyridin-4-one] | ≥ 5 µM
21 | Cc1cc(=O)cc(-c2c(C)cccc2C)[nH]1 [Compound 31, 2-(2,6-dimethylphenyl)-6-methyl-1H-pyridin-4-one] | ≥ 5 µM

Row | Structure (SMILES) | IC50
22 | COc1cc(C(F)(F)F)ccc1-c1cc(=O)cc(C)[nH]1 [Compound 5, 2-[2-methoxy-4-(trifluoromethyl)phenyl]-6-methyl-1H-pyridin-4-one] | ≥ 5 µM
23 | Cc1cc(=O)cc(-c2cc(F)cc(C(F)(F)F)c2)[nH]1 [Compound 68, 2-[3-fluoro-5-(trifluoromethyl)phenyl]-6-methyl-1H-pyridin-4-one] | ≥ 5 µM
24 | Cc1cc(=O)cc(-c2cc(C)c(OC(C)C)c(C)c2)[nH]1 [Compound 27, 2-(4-isopropoxy-3,5-dimethyl-phenyl)-6-methyl-1H-pyridin-4-one] | ≥ 5 µM
25 | Cc1cc(=O)cc(-c2ccc(C(F)(F)F)c(F)c2)[nH]1 [Compound 59, 2-[3-fluoro-4-(trifluoromethyl)phenyl]-6-methyl-1H-pyridin-4-one] | ≥ 5 µM
26 | Cc1cc(=O)cc(-c2ccc(C3CC3)cc2F)[nH]1 [Compound 47, 2-(4-cyclopropyl-2-fluoro-phenyl)-6-methyl-1H-pyridin-4-one] | ≥ 5 µM
27 | COc1cc(C)cc(C)c1-c1cc(=O)cc(C)[nH]1 [Compound 54, 2-(2-methoxy-4,6-dimethyl-phenyl)-6-methyl-1H-pyridin-4-one] | ≥ 5 µM
28 | Cc1cc(=O)cc(-c2ccc(C)c(F)c2)[nH]1 [Compound 71, 2-(3-fluoro-4-methyl-phenyl)-6-methyl-1H-pyridin-4-one] | ≥ 5 µM
29 | Cc1cc(=O)cc(-c2cc(F)c(C)cc2Cl)[nH]1 [Compound 64, 2-(2-chloro-5-fluoro-4-methyl-phenyl)-6-methyl-1H-pyridin-4-one] | ≥ 5 µM
30 | Cc1cc(=O)cc(-c2ccc(C(F)(F)F)cc2O)[nH]1 [Compound 4, 2-[2-hydroxy-4-(trifluoromethyl)phenyl]-6-methyl-1H-pyridin-4-one] | ≥ 5 µM
31 | COc1cc(C)cc(-c2cc(=O)cc(C)[nH]2)c1OC [Compound 40, 2-(2,3-dimethoxy-5-methyl-phenyl)-6-methyl-1H-pyridin-4-one] | ≥ 5 µM
32 | Cc1cc(=O)cc(-c2cnc(C(C)(C)C)nc2)[nH]1 [Compound 103, 2-(2-tert-butylpyrimidin-5-yl)-6-methyl-1H-pyridin-4-one] | ≥ 5 µM
33 | Cc1cc(=O)cc(-c2ccc3c(ccn3C)c2)[nH]1 [Compound 20, 2-methyl-6-(1-methylindol-5-yl)-1H-pyridin-4-one] | ≥ 5 µM
34 | Cc1cc(=O)cc(-c2ccc(C(F)(F)F)cc2F)[nH]1 [Compound 61, 2-[2-fluoro-4-(trifluoromethyl)phenyl]-6-methyl-1H-pyridin-4-one] | ≥ 5 µM
35 | Cc1cc(=O)cc(-c2cnc(C(F)(F)F)nc2)[nH]1 [Compound 101, 2-methyl-6-[2-(trifluoromethyl)pyrimidin-5-yl]-1H-pyridin-4-one] | ≥ 5 µM
36 | COc1c(C)cccc1-c1cc(=O)cc(C)[nH]1 [Compound 44, 2-(2-methoxy-3-methyl-phenyl)-6-methyl-1H-pyridin-4-one] | ≥ 5 µM
37 | Cc1ccc(-c2cc(=O)cc(C)[nH]2)c(C)c1 [Compound 23, 2-(2,4-dimethylphenyl)-6-methyl-1H-pyridin-4-one] | ≥ 5 µM
38 | Cc1cc(=O)cc(-c2cccc(OC(C)(C)C)c2)[nH]1 [Compound 65, 2-(3-tert-butoxyphenyl)-6-methyl-1H-pyridin-4-one] | ≥ 5 µM
39 | Cc1cc(=O)cc(-c2ccc(C3CC3)cc2C)[nH]1 [Compound 34, 2-(4-cyclopropyl-2-methyl-phenyl)-6-methyl-1H-pyridin-4-one] | ≥ 5 µM
40 | COc1cc(C)c(C)cc1-c1cc(=O)cc(C)[nH]1 [Compound 57, 2-(2-methoxy-4,5-dimethyl-phenyl)-6-methyl-1H-pyridin-4-one] | ≥ 5 µM
41 | COc1ccc(-c2cc(=O)cc(C)[nH]2)cc1C(F)(F)F [Compound 32, 2-[4-methoxy-3-(trifluoromethyl)phenyl]-6-methyl-1H-pyridin-4-one] | ≥ 5 µM
